Record: PubChem BioAssay AID1259289 (Sanger Institute, 2017)
Screen: 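Kinase-wide silencing tested with three anchor drugs to reveal synergistic lethal pairs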 (primary screen). Cell system: human LS513 colorectal cancer cells. Knock-down reagent: siRNA pool against human genes. Treatment: anchor drug BYL719 at 1 µM, cetuximab at 5 µg/ml or trametinib at 10 nM, or DMSO vehicle alone; exposure time not given. Read-out: 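Cell survival as a fraction of the non-targeting pool, replicate means; robust z-score for silencing alone under DMSO; synergy score for each of BYL719, cetuximab and trametinib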. Reading the numbers: robust z-score, siRNA alone (DMSO): higher = more viable cells; strongly negative means essential; viability with DMSO vs control: higher = more viable cells; synergy score with BYL719: higher = stronger combined killing with BYL719; synergy score with cetuximab: higher = stronger combined killing with cetuximab; synergy score with trametinib: higher = stronger combined killing with trametinib. Call rule: 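a gene counts as active if its DMSO-only robust z-score falls under -3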. Meaning of the calls: active = essential (knock-down alone); inactive = not essential.
Here is an unselected part of 794 reagents tested. In the full data, 16 (2%) are marked active. 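Active marks cell loss from silencing alone; drug synergy shows only in the synergy scores, not the calls.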 No viability above 1 is reported: the scale is capped. No sequences are given here. Not given: the amount of reagent, the time to read-out.

The first 2 records, to show the layout:
target	robust z-score, siRNA alone (DMSO)	viability with DMSO vs control (fraction of control)	synergy score with BYL719	synergy score with cetuximab	synergy score with trametinib	outcome
WNK3 (GeneID 65267)	0.561	1	0.192	-0.0968	-0.0422	inactive
DAPK2 (GeneID 23604)	0.561	1	0.0483	-0.0968	-0.0247	inactive

Results, from the start:
target	robust z-score, siRNA alone (DMSO)	viability with DMSO vs control (fraction of control)	synergy score with BYL719	synergy score with cetuximab	synergy score with trametinib	outcome
WNK3 (GeneID 65267)	0.561	1	0.192	-0.0968	-0.0422	inactive
DAPK2 (GeneID 23604)	0.561	1	0.0483	-0.0968	-0.0247	inactive
MSR1 (GeneID 4481)	-0.93	0.788	-0.0579	0.162	0.0354	inactive
TSSK4 (GeneID 283629)	0.561	1	-0.134	-0.0968	-0.00414	inactive
MAPKAPK2 (GeneID 9261)	0.052	0.928	0.0183	-0.0989	0.00168	inactive
NTRK1 (GeneID 4914)	-2.06	0.628	-0.1	-0.0457	0.0266	inactive
RPS6KB2 (GeneID 6199)	0.561	1	-0.13	-0.0968	0.0383	inactive
TRIM27 (GeneID 5987)	-0.459	0.855	0.0449	-0.0705	-0.083	inactive
CDK11B (GeneID 984)	-0.983	0.781	-0.124	-0.034	-0.00596	inactive
IRAK4 (GeneID 51135)	0.561	1	0.0246	0.0102	0.0201	inactive
DAPK3 (GeneID 1613)	0.561	1	-0.0102	-0.0968	-0.00962	inactive
DGUOK (GeneID 1716)	-2.92	0.506	-0.118	-0.00717	-0.0187	inactive
SPEG (GeneID 10290)	0.561	1	-0.134	-0.0968	-0.00496	inactive
MAP2K4 (GeneID 6416)	0.561	1	0.0455	-0.00604	-0.0365	inactive
STRADB (GeneID 55437)	-0.115	0.904	0.00194	-0.000906	-0.00706	inactive
TYRO3 (GeneID 7301)	-0.453	0.856	-0.00507	0.246	0.00998	inactive
DCLK3 (GeneID 85443)	0.561	1	-0.0519	0.0339	0.0192	inactive
CIB2 (GeneID 10518)	-3.73	0.391	-0.0983	-0.0337	-0.0361	active
STK10 (GeneID 6793)	-0.634	0.83	0.227	0.0714	0.044	inactive
RSKR (GeneID 124923)	0.561	1	-0.012	-0.0307	-0.121	inactive
CDKN1C (GeneID 1028)	0.561	1	-0.134	-0.0968	0.0339	inactive
MYLK (GeneID 4638)	-2.26	0.6	-0.11	0.152	0.0433	inactive
EIF2AK4 (GeneID 440275)	0.561	1	-0.101	-0.0968	0.0124	inactive
EPHB4 (GeneID 2050)	-1.25	0.743	0.0447	-0.0212	-0.0818	inactive
SIK3 (GeneID 23387)	0.561	1	-0.108	-0.0911	0.0376	inactive
TSKS (GeneID 60385)	0.561	1	-0.106	-0.0968	-0.0639	inactive
ROCK1 (GeneID 6093)	0.561	1	-0.134	-0.0968	-0.0295	inactive
RELA (GeneID 5970)	0.509	0.993	0.0938	-0.0114	0.0791	inactive
RIPK3 (GeneID 11035)	0.44	0.983	0.0353	0.0735	0.0125	inactive
PRKCG (GeneID 5582)	0.561	1	-0.134	-0.0547	0.00494	inactive
SYK (GeneID 6850)	-3.99	0.354	0.00837	0.00981	0.0198	active
PTGS1 (GeneID 5742)	-0.681	0.824	0.186	0.0748	0.0367	inactive
BMPR1A (GeneID 657)	-0.191	0.893	0.0664	0.0271	0.0607	inactive
CDK4 (GeneID 1019)	0.561	1	0.0747	0.026	0.0446	inactive
